Data published in the supplement of paper PMC12823440, “Inhibitors supercharge kinase turnover through native proteolytic circuits” (Nature, 2025).
The other results are listed elsewhere or left out. Hit calls seldom repeat between salt and free forms of one compound.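 In K562 cells expressing nanoluciferase-fused kinases, luminescence was recorded at 4 h intervals between 2 and 18 h, normalized as percent of control with DMSO at 100% and a positive control at 0%. A significant (2 sigma) signal drop marks a time point as decreased. The authors' rule for a hit is not shown and takes in more than the number of time points.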

Chains of the proteins cited; added tags and fusions are not shown. Lines headed by an entry give the natural chain unless they say otherwise; changes in a name come on top.
UniProt P28482, whole entry: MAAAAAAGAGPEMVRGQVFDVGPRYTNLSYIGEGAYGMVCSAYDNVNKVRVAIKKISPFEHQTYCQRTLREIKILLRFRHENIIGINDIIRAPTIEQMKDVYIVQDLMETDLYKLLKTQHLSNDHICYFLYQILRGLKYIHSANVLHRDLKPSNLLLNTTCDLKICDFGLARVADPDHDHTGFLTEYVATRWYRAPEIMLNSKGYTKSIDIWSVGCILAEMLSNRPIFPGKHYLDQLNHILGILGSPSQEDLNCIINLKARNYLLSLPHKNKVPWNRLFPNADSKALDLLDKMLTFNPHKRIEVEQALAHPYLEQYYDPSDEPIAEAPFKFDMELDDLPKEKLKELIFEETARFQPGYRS
UniProt P31152, whole entry: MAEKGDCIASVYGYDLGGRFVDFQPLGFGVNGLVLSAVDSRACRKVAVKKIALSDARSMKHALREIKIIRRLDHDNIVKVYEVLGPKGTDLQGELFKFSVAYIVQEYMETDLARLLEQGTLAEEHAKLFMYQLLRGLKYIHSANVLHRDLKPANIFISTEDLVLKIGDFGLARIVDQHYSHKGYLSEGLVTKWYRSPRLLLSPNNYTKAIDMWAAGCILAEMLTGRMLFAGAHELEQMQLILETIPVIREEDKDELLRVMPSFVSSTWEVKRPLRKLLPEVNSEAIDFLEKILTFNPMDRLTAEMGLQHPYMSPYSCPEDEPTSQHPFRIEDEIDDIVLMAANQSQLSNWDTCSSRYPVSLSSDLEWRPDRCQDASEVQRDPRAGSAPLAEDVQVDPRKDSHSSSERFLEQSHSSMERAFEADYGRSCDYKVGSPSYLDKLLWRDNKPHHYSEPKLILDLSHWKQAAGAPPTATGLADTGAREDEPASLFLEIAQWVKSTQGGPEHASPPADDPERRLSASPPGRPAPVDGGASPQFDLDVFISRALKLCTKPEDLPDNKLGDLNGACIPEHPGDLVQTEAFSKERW
UniProt P49137, whole entry, looked up: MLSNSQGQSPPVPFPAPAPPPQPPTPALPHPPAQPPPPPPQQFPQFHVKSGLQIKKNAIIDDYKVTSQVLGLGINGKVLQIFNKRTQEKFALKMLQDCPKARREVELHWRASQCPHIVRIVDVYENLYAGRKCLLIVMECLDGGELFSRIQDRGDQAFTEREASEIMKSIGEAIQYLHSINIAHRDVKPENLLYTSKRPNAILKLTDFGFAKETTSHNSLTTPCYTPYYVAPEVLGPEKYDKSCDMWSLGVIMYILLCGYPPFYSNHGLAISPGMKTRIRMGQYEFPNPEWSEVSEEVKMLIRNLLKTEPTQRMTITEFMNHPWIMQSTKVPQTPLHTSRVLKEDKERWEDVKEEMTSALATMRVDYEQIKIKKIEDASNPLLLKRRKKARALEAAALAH
UniProt Q16620, whole entry, looked up: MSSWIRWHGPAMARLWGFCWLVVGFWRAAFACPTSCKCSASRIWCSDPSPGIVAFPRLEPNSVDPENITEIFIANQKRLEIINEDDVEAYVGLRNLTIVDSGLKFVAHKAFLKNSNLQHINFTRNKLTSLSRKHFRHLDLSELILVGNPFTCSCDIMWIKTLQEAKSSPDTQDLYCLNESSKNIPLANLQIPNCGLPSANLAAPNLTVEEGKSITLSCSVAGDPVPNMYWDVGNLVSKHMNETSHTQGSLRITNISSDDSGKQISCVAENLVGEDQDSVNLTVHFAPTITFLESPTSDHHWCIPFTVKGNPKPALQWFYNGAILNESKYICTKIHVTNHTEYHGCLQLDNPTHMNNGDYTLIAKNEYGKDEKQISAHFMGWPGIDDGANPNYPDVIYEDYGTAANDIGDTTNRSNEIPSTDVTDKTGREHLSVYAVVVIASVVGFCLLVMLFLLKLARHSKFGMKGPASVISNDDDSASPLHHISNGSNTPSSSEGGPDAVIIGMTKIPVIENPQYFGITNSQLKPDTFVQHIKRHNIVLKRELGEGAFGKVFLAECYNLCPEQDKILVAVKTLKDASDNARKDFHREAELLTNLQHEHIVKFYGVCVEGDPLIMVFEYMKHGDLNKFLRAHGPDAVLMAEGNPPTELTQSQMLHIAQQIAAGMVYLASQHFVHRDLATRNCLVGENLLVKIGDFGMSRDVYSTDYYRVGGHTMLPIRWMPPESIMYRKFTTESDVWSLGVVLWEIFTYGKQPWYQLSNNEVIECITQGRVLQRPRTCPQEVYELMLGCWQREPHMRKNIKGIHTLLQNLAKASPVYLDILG
UniProt Q16288, whole entry, looked up: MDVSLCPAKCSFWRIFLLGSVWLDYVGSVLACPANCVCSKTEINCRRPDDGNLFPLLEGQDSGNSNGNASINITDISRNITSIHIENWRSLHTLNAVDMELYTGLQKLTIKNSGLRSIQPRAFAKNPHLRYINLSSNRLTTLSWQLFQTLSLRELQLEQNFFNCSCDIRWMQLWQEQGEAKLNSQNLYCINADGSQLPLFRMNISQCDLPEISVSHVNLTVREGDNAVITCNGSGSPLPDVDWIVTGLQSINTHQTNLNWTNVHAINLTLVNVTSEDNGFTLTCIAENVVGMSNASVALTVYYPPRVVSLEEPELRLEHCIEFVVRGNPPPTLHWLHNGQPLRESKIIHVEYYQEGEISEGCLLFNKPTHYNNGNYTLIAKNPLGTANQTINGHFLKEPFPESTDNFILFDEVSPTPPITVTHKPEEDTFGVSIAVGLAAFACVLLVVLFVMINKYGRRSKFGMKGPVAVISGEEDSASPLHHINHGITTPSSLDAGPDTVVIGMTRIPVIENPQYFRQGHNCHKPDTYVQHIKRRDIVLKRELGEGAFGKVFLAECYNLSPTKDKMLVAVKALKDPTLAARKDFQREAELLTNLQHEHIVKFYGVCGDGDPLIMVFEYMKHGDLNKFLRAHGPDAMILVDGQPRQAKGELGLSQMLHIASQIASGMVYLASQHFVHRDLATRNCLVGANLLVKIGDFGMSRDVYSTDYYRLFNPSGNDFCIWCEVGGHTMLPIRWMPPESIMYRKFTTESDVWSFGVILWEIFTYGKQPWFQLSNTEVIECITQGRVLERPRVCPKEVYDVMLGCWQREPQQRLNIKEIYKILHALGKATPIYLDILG
UniProt O96013: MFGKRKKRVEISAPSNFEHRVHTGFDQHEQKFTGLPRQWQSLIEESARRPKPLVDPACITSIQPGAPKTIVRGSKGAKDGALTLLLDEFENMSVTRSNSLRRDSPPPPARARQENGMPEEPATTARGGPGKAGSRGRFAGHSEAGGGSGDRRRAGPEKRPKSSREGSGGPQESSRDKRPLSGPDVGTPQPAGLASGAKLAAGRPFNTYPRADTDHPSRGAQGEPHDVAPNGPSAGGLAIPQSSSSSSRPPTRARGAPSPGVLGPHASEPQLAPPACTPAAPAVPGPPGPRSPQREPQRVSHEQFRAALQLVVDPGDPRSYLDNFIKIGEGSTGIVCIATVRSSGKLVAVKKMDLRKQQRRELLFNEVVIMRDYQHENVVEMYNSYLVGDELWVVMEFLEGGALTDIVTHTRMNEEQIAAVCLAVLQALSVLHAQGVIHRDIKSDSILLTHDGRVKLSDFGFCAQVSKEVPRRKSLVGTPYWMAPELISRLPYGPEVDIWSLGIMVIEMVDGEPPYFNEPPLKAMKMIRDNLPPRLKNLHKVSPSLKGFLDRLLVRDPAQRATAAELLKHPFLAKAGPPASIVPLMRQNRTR
UniProt Q96KB5: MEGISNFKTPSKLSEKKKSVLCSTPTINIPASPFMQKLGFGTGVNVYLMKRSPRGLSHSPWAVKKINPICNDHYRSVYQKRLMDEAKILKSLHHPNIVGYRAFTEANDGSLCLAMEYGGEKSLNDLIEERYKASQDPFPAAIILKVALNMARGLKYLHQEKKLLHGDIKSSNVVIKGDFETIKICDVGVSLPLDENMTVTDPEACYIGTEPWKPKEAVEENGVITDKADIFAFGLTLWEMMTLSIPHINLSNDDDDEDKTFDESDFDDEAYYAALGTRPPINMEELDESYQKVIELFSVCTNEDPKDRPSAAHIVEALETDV
UniProt Q9UBF8: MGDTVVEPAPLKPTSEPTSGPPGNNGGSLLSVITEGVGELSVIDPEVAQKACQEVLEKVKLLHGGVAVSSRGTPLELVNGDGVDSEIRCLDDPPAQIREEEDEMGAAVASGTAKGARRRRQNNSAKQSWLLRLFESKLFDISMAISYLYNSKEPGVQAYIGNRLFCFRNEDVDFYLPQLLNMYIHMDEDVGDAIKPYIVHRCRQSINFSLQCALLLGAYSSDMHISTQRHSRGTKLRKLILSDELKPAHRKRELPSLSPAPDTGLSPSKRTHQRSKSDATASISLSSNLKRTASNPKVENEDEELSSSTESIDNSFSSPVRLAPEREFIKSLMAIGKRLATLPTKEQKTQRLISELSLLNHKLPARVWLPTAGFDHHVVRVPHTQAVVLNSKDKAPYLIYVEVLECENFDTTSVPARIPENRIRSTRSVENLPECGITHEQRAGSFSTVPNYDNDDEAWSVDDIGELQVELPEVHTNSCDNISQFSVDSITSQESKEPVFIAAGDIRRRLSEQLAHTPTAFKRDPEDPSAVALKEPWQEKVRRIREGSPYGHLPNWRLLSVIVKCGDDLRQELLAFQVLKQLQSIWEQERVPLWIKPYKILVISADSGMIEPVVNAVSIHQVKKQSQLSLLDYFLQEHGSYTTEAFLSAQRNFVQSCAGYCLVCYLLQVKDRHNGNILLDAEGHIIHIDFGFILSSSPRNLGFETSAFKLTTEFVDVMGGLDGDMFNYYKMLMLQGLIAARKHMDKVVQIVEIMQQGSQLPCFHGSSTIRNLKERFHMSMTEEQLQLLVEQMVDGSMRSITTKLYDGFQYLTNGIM
UniProt Q13131: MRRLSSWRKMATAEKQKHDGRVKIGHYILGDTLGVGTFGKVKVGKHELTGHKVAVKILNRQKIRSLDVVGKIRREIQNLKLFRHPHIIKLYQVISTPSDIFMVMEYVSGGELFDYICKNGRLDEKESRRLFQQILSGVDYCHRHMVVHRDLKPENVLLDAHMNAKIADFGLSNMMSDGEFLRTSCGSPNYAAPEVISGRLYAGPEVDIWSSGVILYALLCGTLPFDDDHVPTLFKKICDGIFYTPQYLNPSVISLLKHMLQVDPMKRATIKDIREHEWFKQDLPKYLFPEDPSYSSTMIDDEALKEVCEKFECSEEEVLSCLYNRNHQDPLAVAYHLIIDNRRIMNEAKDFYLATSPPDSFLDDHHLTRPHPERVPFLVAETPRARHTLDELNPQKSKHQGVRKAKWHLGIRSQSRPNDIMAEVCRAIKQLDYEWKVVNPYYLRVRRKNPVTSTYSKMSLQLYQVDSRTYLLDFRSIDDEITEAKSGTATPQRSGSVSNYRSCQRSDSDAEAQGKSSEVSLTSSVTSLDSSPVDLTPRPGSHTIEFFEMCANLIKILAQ
UniProt Q05397, whole entry, looked up: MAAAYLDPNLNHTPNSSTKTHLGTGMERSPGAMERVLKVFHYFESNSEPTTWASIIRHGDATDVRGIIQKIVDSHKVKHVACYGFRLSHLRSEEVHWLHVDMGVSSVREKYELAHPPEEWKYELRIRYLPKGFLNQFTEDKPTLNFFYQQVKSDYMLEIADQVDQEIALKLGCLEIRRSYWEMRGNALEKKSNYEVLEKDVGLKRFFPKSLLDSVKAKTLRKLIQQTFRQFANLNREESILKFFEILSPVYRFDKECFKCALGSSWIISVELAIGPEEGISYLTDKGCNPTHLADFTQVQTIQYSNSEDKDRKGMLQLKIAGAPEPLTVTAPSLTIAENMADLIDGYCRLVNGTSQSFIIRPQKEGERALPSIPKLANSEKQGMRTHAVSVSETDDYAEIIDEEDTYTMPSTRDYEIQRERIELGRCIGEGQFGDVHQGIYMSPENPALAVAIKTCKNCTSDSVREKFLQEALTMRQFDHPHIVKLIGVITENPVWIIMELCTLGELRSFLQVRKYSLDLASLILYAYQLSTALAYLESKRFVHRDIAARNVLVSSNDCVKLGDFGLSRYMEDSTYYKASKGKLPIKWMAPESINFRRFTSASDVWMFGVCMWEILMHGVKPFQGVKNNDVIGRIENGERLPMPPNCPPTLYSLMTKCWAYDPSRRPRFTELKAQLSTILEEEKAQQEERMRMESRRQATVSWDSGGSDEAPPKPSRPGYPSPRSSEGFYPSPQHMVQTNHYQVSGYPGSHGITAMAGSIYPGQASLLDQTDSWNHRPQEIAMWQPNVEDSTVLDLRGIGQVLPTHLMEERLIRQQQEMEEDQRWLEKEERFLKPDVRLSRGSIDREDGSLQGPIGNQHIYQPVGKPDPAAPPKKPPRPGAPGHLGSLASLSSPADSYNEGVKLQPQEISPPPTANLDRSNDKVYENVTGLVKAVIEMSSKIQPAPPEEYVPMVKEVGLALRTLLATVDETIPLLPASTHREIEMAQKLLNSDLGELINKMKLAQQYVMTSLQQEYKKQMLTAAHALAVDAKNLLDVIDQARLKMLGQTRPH

Legend:
Assay in all cases: kinase-Nluc reporter destabilization hit call (1 = scored as downregulated) (binary); higher = compound decreases kinase abundance
Settings in all cases: K562; 2-18 h
[1] = biological target: MAPK1 (UniProt P28482)
[2] = biological target: MAPK4 (UniProt P31152)
[3] = biological target: MAPKAPK2 (UniProt P49137)
[4] = biological target: MKNK1 (UniProt Q9BUB5)
[5] = biological target: NTRK2 (UniProt Q16620)
[6] = biological target: NTRK3 (UniProt Q16288)
[7] = biological target: PAK4 (UniProt O96013)
[8] = biological target: PBK (UniProt Q96KB5)
[9] = biological target: PDGFRB (UniProt P09619)
[10] = biological target: PDK1 (UniProt Q15118)
[11] = biological target: PDPK1 (UniProt O15530)
[12] = biological target: PIK4CA (UniProt P42356)
[13] = biological target: PIK4CB (UniProt Q9UBF8)
[14] = biological target: PLK1 (UniProt P53350)
[15] = biological target: PRKAA1 (UniProt Q13131)
[16] = biological target: PRKCA (UniProt P17252)
[17] = biological target: PTK2 (UniProt Q05397)
[18] = biological target: PTK2B (UniProt Q14289)
[19] = biological target: RAF1 (UniProt P04049)
[20] = biological target: RAF1_S257L (clone: RAF1_mut) (UniProt P04049)

Measured: kinase-Nluc reporter destabilization hit call

CC[C@@H](N)CNc1ccnc(-c2cc(-c3cnn(C)c3)ccc2O)n1 (2.5 µM)
inactive: [1] 0 | [2] 0 | [3] 0 | [4] 0 | [5] 0 | [6] 0 | [7] 0 | [8] 0 | [9] 0 | [10] 0 | [11] 0 | [12] 0 | [13] 0 | [14] 0 | [15] 0 | [16] 0 | [17] 0 | [18] 0 | [19] 0 | [20] 0

Fc1c(Br)cccc1Nc1ncnc2cc3c(cc12)OCCO3 (2.5 µM)
inactive: [1] 0 | [2] 0 | [3] 0 | [4] 0 | [5] 0 | [6] 0 | [7] 0 | [8] 0 | [9] 0 | [10] 0 | [11] 0 | [12] 0 | [13] 0 | [14] 0 | [15] 0 | [16] 0 | [17] 0 | [18] 0 | [19] 0 | [20] 0

CCN1/C(=C/C(C)=O)Sc2ccc(OC)cc21 (10 µM)
inactive: [1] 0 | [2] 0 | [3] 0 | [4] 0 | [5] 0 | [6] 0 | [7] 0 | [8] 0 | [9] 0 | [10] 0 | [11] 0 | [12] 0 | [13] 0 | [14] 0 | [15] 0 | [16] 0 | [17] 0 | [18] 0 | [19] 0 | [20] 0

CC(C)N(C)c1nc2cc(C(=O)O)ccc2nc1-c1ccc(F)cc1 (10 µM)
inactive: [1] 0 | [2] 0 | [3] 0 | [4] 0 | [5] 0 | [6] 0 | [7] 0 | [8] 0 | [9] 0 | [10] 0 | [11] 0 | [12] 0 | [13] 0 | [14] 0 | [15] 0 | [16] 0 | [17] 0 | [18] 0 | [19] 0 | [20] 0

COc1ccc(CCNc2ncc3c(=O)n(-c4cccc(F)c4)c(=O)[nH]c3n2)cc1OC (2 µM)
inactive: [1] 0 | [2] 0 | [3] 0 | [4] 0 | [5] 0 | [6] 0 | [7] 0 | [8] 0 | [9] 0 | [10] 0 | [11] 0 | [12] 0 | [13] 0 | [14] 0 | [15] 0 | [16] 0 | [17] 0 | [18] 0 | [19] 0 | [20] 0

COc1c(O)cc2oc3cc(O)c(CC=C(C)C)c(O)c3c(=O)c2c1CCC(C)(C)O [Garcinone D] (2.5 µM)
inactive: [1] 0 | [2] 0 | [3] 0 | [4] 0 | [5] 0 | [6] 0 | [7] 0 | [8] 0 | [9] 0 | [10] 0 | [11] 0 | [12] 0 | [13] 0 | [14] 0 | [15] 0 | [16] 0 | [17] 0 | [18] 0 | [19] 0 | [20] 0

C=C[C@H]1[C@H](O[C@@H]2O[C@H](CO)[C@@H](O)[C@H](O)[C@H]2OC(=O)c2c(O)cc(O)cc2-c2cccc(O)c2)OC=C2C(=O)OCC[C@H]21 [Amarogentin] (10 µM)
inactive: [1] 0 | [2] 0 | [3] 0 | [4] 0 | [5] 0 | [6] 0 | [7] 0 | [8] 0 | [9] 0 | [10] 0 | [11] 0 | [12] 0 | [13] 0 | [14] 0 | [15] 0 | [16] 0 | [17] 0 | [18] 0 | [19] 0 | [20] 0

O=C1NC(=O)/C(=C/c2ccc(-c3ccc(F)cc3O)o2)S1 (10 µM)
inactive: [1] 0 | [2] 0 | [3] 0 | [4] 0 | [5] 0 | [6] 0 | [7] 0 | [8] 0 | [9] 0 | [10] 0 | [11] 0 | [12] 0 | [13] 0 | [14] 0 | [15] 0 | [16] 0 | [17] 0 | [18] 0 | [19] 0 | [20] 0

Cc1ccc(-c2ncn(-c3ccc(Nc4nccc(-c5cccc(N6CCOCC6)c5)n4)cc3)n2)cn1 (10 µM)
inactive: [1] 0 | [2] 0 | [3] 0 | [4] 0 | [5] 0 | [6] 0 | [7] 0 | [8] 0 | [9] 0 | [10] 0 | [11] 0 | [12] 0 | [13] 0 | [14] 0 | [15] 0 | [16] 0 | [17] 0 | [18] 0 | [19] 0 | [20] 0

O=C(CCCCCn1cc(Nc2ncc(Cl)c(Nc3ccc(Cl)cc3)n2)cn1)NO (2.5 µM)
inactive: [1] 0 | [2] 0 | [3] 0 | [4] 0 | [5] 0 | [6] 0 | [7] 0 | [8] 0 | [9] 0 | [10] 0 | [11] 0 | [12] 0 | [13] 0 | [14] 0 | [15] 0 | [16] 0 | [17] 0 | [18] 0 | [19] 0 | [20] 0

CCCC(=O)Nc1nc2c(ncn2[C@@H]2O[C@@H]3COP(=O)(O)O[C@H]3[C@H]2OC(=O)CCC)c(=O)[nH]1 [Dibutyryl-cGMP (sodium)] (10 µM)
inactive: [1] 0 | [2] 0 | [3] 0 | [4] 0 | [5] 0 | [6] 0 | [7] 0 | [8] 0 | [9] 0 | [10] 0 | [11] 0 | [12] 0 | [13] 0 | [14] 0 | [15] 0 | [16] 0 | [17] 0 | [18] 0 | [19] 0 | [20] 0

c1cc(-c2cnn3cc(-c4ccc(N5CCNCC5)cc4)cnc23)c2cccnc2c1 (2.5 µM)
inactive: [1] 0 | [2] 0 | [3] 0 | [4] 0 | [5] 0 | [6] 0 | [7] 0 | [8] 0 | [9] 0 | [10] 0 | [11] 0 | [12] 0 | [13] 0 | [14] 0 | [15] 0 | [16] 0 | [17] 0 | [18] 0 | [19] 0 | [20] 0

Cc1cnc(Nc2ccc(N3CCN(C)CC3)cc2)nc1Nc1cccc(S(=O)(=O)NC(C)(C)C)c1 (2.5 µM)
inactive: [1] 0 | [2] 0 | [3] 0 | [4] 0 | [5] 0 | [6] 0 | [7] 0 | [8] 0 | [9] 0 | [10] 0 | [11] 0 | [12] 0 | [13] 0 | [14] 0 | [15] 0 | [16] 0 | [17] 0 | [18] 0 | [19] 0 | [20] 0

O=C(O)c1ccc(N2N=C(Cc3ccccc3)C(=Cc3ccc(-c4ccccc4F)o3)C2=O)cc1 (10 µM)
inactive: [1] 0 | [2] 0 | [3] 0 | [4] 0 | [5] 0 | [6] 0 | [7] 0 | [8] 0 | [9] 0 | [10] 0 | [11] 0 | [12] 0 | [13] 0 | [14] 0 | [15] 0 | [16] 0 | [17] 0 | [18] 0 | [19] 0 | [20] 0

C=C(F)C(=O)N1CCN(c2nc(OC[C@@H]3CCCN3C)nc3c2CCN(c2cccc4cccc(Cl)c24)C3)C[C@@H]1CC#N (2.5 µM)
inactive: [1] 0 | [2] 0 | [3] 0 | [4] 0 | [5] 0 | [6] 0 | [7] 0 | [8] 0 | [9] 0 | [10] 0 | [11] 0 | [12] 0 | [13] 0 | [14] 0 | [15] 0 | [16] 0 | [17] 0 | [18] 0 | [19] 0 | [20] 0

CCn1nc(C2CCN(C(=O)CCO)CC2)nc1-c1cnc(N)c(-c2nnc(C(C)(C)C)o2)n1 (10 µM)
inactive: [1] 0 | [2] 0 | [3] 0 | [4] 0 | [5] 0 | [6] 0 | [7] 0 | [8] 0 | [9] 0 | [10] 0 | [11] 0 | [12] 0 | [13] 0 | [14] 0 | [15] 0 | [16] 0 | [17] 0 | [18] 0 | [19] 0 | [20] 0

For reference, 2 of the compounds above.
Cc1ccc(-c2ncn(-c3ccc(Nc4nccc(-c5cccc(N6CCOCC6)c5)n4)cc3)n2)cn1 (10 µM)
inactive: [1] 0 | [2] 0 | [3] 0 | [4] 0 | [5] 0 | [6] 0 | [7] 0 | [8] 0 | [9] 0 | [10] 0 | [11] 0 | [12] 0 | [13] 0 | [14] 0 | [15] 0 | [16] 0 | [17] 0 | [18] 0 | [19] 0 | [20] 0

O=C(CCCCCn1cc(Nc2ncc(Cl)c(Nc3ccc(Cl)cc3)n2)cn1)NO (2.5 µM)
inactive: [1] 0 | [2] 0 | [3] 0 | [4] 0 | [5] 0 | [6] 0 | [7] 0 | [8] 0 | [9] 0 | [10] 0 | [11] 0 | [12] 0 | [13] 0 | [14] 0 | [15] 0 | [16] 0 | [17] 0 | [18] 0 | [19] 0 | [20] 0

The list continues:

CCc1cccc(CC)c1NC(=O)c1nn(C)c2c1CCc1cnc(Nc3ccc(C(=O)NC4CCN(C)CC4)cc3OC(F)(F)F)nc1-2 (2 µM)
inactive: [1] 0 | [2] 0 | [3] 0 | [4] 0 | [5] 0 | [6] 0 | [7] 0 | [8] 0 | [9] 0 | [10] 0 | [11] 0 | [12] 0 | [13] 0 | [14] 0 | [15] 0 | [16] 0 | [17] 0 | [18] 0 | [19] 0 | [20] 0

COc1cc2ncnc(Nc3ccc(NC(=O)c4ccccc4)cc3)c2cc1OC [Aurora kinase inhibitor-2] (2.5 µM)
inactive: [1] 0 | [2] 0 | [3] 0 | [4] 0 | [5] 0 | [6] 0 | [7] 0 | [8] 0 | [9] 0 | [10] 0 | [11] 0 | [12] 0 | [13] 0 | [14] 0 | [15] 0 | [16] 0 | [17] 0 | [18] 0 | [19] 0 | [20] 0

COc1nc(-c2ccnc(NC(=O)C3CC3)c2)sc1C(N)=O [GSK-3β inhibitor 2] (10 µM)
inactive: [1] 0 | [2] 0 | [3] 0 | [4] 0 | [5] 0 | [6] 0 | [7] 0 | [8] 0 | [9] 0 | [10] 0 | [11] 0 | [12] 0 | [13] 0 | [14] 0 | [15] 0 | [16] 0 | [17] 0 | [18] 0 | [19] 0 | [20] 0
